Results published in patent publication US20170165366A1.

B1: MAB19-IgG4 (antibody, V domains shown)
VH: QVQLVQSGAEVKKPGASVKVSCKASGYTFTSHYMGWVRQAPGQGLEWMGVINPSMGATSYAQKFQGRVTMTRDTSTSTVYMELSSLRSEDTAVYYCARLHVSGSYYPAYLDYWGQGTMVTVSS
VL: EIVMTQSPATLSVSPGERATLSCRASQSVSSNLAWYQQKPGQAPRHLIYGASTRATGIPARFSGSGSGTEFTLTISSLQSEDFAVYYCQQYIVFPWTFGGGTKVEIKR
B2: MAB20-IgG4 (antibody, V domains shown)
VH: B1 VH with M48V, V50I
VL: B1 VL
B3: MAB21-IgG4 (antibody, V domains shown)
VH: B1 VH with V50I, A61T, Q65R
VL: B1 VL

Molecular target: cynomolgus monkey TIGIT-His (cynomolgus monkey)
Assay: BLI (ForteBio), IgG on AHQ sensor, single antigen concentration

binding, no binding (tested: 100 nM antigen):
B1, B2, B3

Changes are numbered by the printed parent chain. These are yes or no findings as the source states them, for the method shown.
